Data: PMC4559445

Protein sequences, listed by entry. Tags and fused reporters are not part of them. Lines headed by an entry give the natural chain unless they say otherwise; changes in a name come on top.
UniProt C1GXS6: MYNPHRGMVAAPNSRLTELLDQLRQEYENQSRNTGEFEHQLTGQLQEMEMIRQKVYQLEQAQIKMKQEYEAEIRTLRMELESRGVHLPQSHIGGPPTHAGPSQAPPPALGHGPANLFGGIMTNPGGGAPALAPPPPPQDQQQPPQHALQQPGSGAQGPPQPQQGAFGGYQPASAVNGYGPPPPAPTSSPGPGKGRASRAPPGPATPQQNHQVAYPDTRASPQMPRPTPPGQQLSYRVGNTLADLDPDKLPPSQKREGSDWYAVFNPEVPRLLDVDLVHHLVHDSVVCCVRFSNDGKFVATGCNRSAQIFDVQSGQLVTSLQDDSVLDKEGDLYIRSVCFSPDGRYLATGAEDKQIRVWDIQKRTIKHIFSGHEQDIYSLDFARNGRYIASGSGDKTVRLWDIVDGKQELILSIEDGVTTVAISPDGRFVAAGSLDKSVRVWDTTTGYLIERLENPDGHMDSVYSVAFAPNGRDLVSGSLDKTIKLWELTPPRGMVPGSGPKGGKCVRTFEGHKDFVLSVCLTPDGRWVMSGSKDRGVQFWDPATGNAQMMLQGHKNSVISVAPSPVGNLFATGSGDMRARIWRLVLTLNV

B1: ScCyr1^(1-365), N-terminal domain of S. cerevisiae adenylate cyclase (two-hybrid fusion) (domain or fragment, UniProt P08678 1-365)
chain: MSSKPDTGSEISGPQRQEEQEQQIEQSSPTEANDRSIHDEVPKVKKRHEQNSGHKSRRNSAYSYYSPRSLSMTKSRESITPNGMDDVSISNVEHPRPTEPKIKRGPYLLKKTLSSLSMTSANSTHDDNKDHGYALNSSKTHNYTSTHNHHDGHHDHHHVQFFPNRKPSLAETLFKRFSGSNSHDGNKSGKESKVANLSLSTVNPAPANRKPSKDSTLSNHLADNVPSTLRRKVSSLVRGSSVHDINNGIADKQIRPKAVAQSENTLHSSDVPNSKRSHRKSFLLGSTSSSSSRRGSNVSSMTNSDSASMATSGSHVLQHNVSNVSPTTKSKDSVNSESADHTNNKSEKVTPEYNENIPENSNSDN
B2: ScCyr1^(350-480), G-alpha association domain of S. cerevisiae adenylate cyclase (two-hybrid fusion) (domain or fragment, UniProt P08678 350-480)
chain: TPEYNENIPENSNSDNKREATTPTIETPISCKPSLFRLDTNLEDVTDITKTVPPTAVNSTLNSTHGTETASPKTVIMPEGPRKSVSMADLSVAAAAPNGEFTSTSNDRSQWVAPQSWDVETKRKKTKPKGR
B3: ScCyr1^(600-800), RAS-association domain of S. cerevisiae adenylate cyclase (two-hybrid fusion) (domain or fragment, UniProt P08678 600-800)
chain: SSYTNAYMEANREQDNKTPILNKTKSYTKKFTSSSVNMNSPDGAQSSGLLLQDEKDDEVECQLEHYYKDFSDLDPKRHYAIRIFNTDDTFTTLSCTPATTVEEIIPALKRKFNITAQGNFQISLKVGKLSKILRPTSKPILIERKLLLLNGYRKSDPLHIMGIEDLSFVFKFLFHPVTPSHFTPEQEQRIMRSEFVHVDLR
B4: ScTpk2, PKA catalytic subunit of S. cerevisiae (two-hybrid fusion) (enzyme, UniProt P06245 1-380)
chain: MEFVAERAQPVGQTIQQQNVNTYGQGVLQPHHDLQQRQQQQQQRQHQQLLTSQLPQKSLVSKGKYTLHDFQIMRTLGTGSFGRVHLVRSVHNGRYYAIKVLKKQQVVKMKQVEHTNDERRMLKLVEHPFLIRMWGTFQDARNIFMVMDYIEGGELFSLLRKSQRFPNPVAKFYAAEVILALEYLHAHNIIYRDLKPENILLDRNGHIKITDFGFAKEVQTVTWTLCGTPDYIAPEVITTKPYNKSVDWWSLGVLIYEMLAGYTPFYDTTPMKTYEKILQGKVVYPPYFHPDVVDLLSKLITADLTRRIGNLQSGSRDIKAHPWFSEVVWERLLAKDIETPYEPPITSGIGDTSLFDQYPEEQLDYGIQGDDPYAEYFQDF
B5: ScGpr1^(679-961), ScGpa2 association domain of the GPCR Gpr1 of S. cerevisiae (two-hybrid fusion) (domain or fragment, UniProt Q12361 679-961)
chain: KEKPWNYSWAKTESKYLIEKYILKGELGEKEILKFCHSNWGKRGWYYRGKWKKRKCWKYSTNPLKRILWFVERFFKQLFELKLHFSFYDNCDDFEYWENYYSAKDSNDNKRTESDETKTNSSDRSLPSNSLELQAMLNNITAEEVEVPLFWRIIHHIPMLGGIDLDELNRLLKIRYNNDHFSLPGLKFALNQNKSHDKHQDVSTNSMVKSSFFSSNIVTNDDENSIEEDKNLRYSDASASENYLVKPTIPGTTPDPIIEAQNDNDSSDSSGIDLIAFLRNGPL

Tests used:
[1] = target: PbTpk2^(1-270) (two-hybrid fusion) (P. brasiliensis) (UniProt C1GNL3); assay: two-hybrid; Matchmaker GAL4 Two-Hybrid System 3; yeast AH109 co-transformed with pGBKT7 bait and pGADT7 prey; growth on SD-Ade/-His/-Leu/-Trp plates and blue colonies on alpha-X-gal; genes swapped between the vectors, positive only if positive in both
[2] = target: PbTpk2^(265-583) (two-hybrid fusion) (P. brasiliensis) (UniProt C1GNL3); assay: as above
[3] = target: PbTpk2^(1-225)-GST (P. brasiliensis) (UniProt C1GNL3); assay: pull-down; GST fusion protein immobilised on GST beads as bait, His-tagged protein as prey; 20 mM HEPES pH 7.9, 600 mM NaCl, 0.05% Tween 20, 5% glycerol, 1 mM DTT; overnight at 4°C, 9 washes; Western blot with anti-hexahistidine antibody; both purified
[4] = target: PbGpb1, G-beta protein of P. brasiliensis (two-hybrid fusion) (P. brasiliensis); assay: two-hybrid
[5] = target: PbGpa1, G-alpha protein of P. brasiliensis (two-hybrid fusion) (P. brasiliensis); assay: two-hybrid
[6] = target: PbTupA, transcriptional co-regulator of P. brasiliensis (two-hybrid fusion) (P. brasiliensis); assay: two-hybrid
[7] = target: PbGpa3, G-alpha protein of P. brasiliensis (two-hybrid fusion) (P. brasiliensis); assay: two-hybrid
[8] = target: PbGpa2, G-alpha protein of P. brasiliensis (two-hybrid fusion) (P. brasiliensis); assay: two-hybrid

Row | Molecule | binding [4] | binding [5] | other results
1 | PbGpg1, G-gamma protein of P. brasiliensis (two-hybrid fusion) (from UniProt A7L9Y3) | – | – | binding [1]: binds; binding [2]: binds
2 | PbTupA-His6 (from UniProt C1GXS6) | – | – | binding [3]: binds
3 | B1 | no binding | no binding | –
4 | B2 | no binding | no binding | –
5 | B3 | no binding | no binding | –
6 | B4 | no binding | no binding | binding [6]: no binding
7 | B5 | no binding | no binding | binding [7]: no binding; binding [8]: no binding

These are yes or no findings as the source states them, for the method shown. For some of these results: A result given as binding can be weak or reduced; the word gives no strength. For some of these results: Where a sequence is shown, tags or fusion partners need not be part of it.
